Experimental findings from paper PMC4245848, “The Aspergillus nidulans Zn(II)2Cys6 transcription factor AN5673/RhaR mediates L-rhamnose utilization and the production of α-L-rhamnosidases” are described below.

The data set deals with T1, His6::RhaR (1-159*) (Aspergillus nidulans (cDNA from strain AR198)) (UniProt A0A0A1I536).
T1 sequence: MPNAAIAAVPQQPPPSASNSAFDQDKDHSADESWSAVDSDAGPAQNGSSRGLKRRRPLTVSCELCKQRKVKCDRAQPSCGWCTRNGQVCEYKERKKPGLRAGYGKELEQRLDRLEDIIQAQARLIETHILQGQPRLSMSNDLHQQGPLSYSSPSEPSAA
In words: EMSA. The note with it: 0-1.2 ug protein, 100 ng DNA; 25 mM HEPES pH 7.9, 50 mM KCl, 5 mM MgCl2, 1 mM DTT, 0.1 mM EDTA, 1 ug salmon sperm DNA, 20 ul, 4 C 30 min; 5-8% native PAGE in 0.5x TBE at 4 C, ethidium bromide; recombinant protein; protein details: N-terminal His6 (pQE-80L); probe letters rebuilt from the primers and the genome. For orientation: In EMSA bound probe runs differently from free probe, usually more slowly.

Protein sequences can lack the tags named with them.

For the sequence “CTAGCATTACTTCCTTGGGACATTAGAGTCAAGCACGAAATATCTCTTGTCTGGATTGTAATAGGCCGGGACTGTTTAGCCTTGGGCAACATATACCCAAAAGGATGTATGTCTCCCATAGCGTTCTAGTGCGTTAACCCTAACTGCCTATCAACGTTCCGGTATAGAGTTCACAACTTCGCCATTGCAATCTTCGACTAATTTCTTCTTCACATTCTTTATGCATATATCGTCATACGCTATTCTGACACTCTTTTTTTTACCCCGCATTCCTCGGCGTCCGTGGTTCTCGCCGAGTAGCCGACTGCAGATCTTCTCGGGGGAAGATCGACCGACCTGGTCCTGCAGAGCTCCAAGGCTTCCTCTCAGAAAGCCGATTAGTAGAAGCGGAGTCAAAGCAGGGTCAAGACGGACAATTAGAAGCCATGAATGGCGGATCCCAGCCCATGATCGCATACTGTGATCCAAAATCGACATAACTAAGTCACTTCCCTTCGCTTGTATCTGCCCAGCCATCCAACAACTCTA (double strand) [rhaAp 528 bp]”, the binding result is “binds”.
